Patent US20190144541A1
No constants are given. Whether binding was seen depends on the method and setting. Some entries that bind do so weakly or less than the wild type.

Protein sequences, listed by entry. Tags and fused reporters are not part of them. Residues count along the entry.
UniProt Q15116, residues 25-167: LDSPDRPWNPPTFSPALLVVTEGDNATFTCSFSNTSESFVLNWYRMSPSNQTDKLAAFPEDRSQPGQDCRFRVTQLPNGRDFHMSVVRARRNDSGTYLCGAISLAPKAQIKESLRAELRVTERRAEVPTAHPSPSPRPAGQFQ

Experiments:
PD-1 on PD1-CHO cells = test: cell ELISA on fixed PD1-CHO cells, anti-human Fc-HRP
PD-1-His [1] = target: PD-1-His (UniProt Q15116); test: ELISA, PD-1-His coated at 60 ng/well, antibody from 16 ug/mL in 4-fold dilutions, anti-human Fc-HRP detection
PD-1-His [2] = target: PD-1-His (UniProt Q15116); test: competition ELISA: antibody premixed with 4 ug/mL PD1-His, added to coated PDL1-Fc, bound PD1-His detected with anti-His-HRP
PD-1-His [3] = target: PD-1-His (UniProt Q15116); test: ELISA on coated PD-1-His (60 ng/well), anti-human Fc-HRP

Measured: binding

B1: DFPD1-12 full-length anti-PD-1 monoclonal antibody (antibody, human IgG4 S228P, kappa, V domains shown)
VH: QVQLVESGGGVVQPGRSLRLDCKASGITFSNYGMHWVRQAPGKGLEWVAVIWYDGSKKYYADSVKGRFTISRDNSKNTLFLQMNSLRAEDTAVYYCATNNDYWGQGTLVTVSS
VL: DIQMTQSPSSLSASVGDRVTITCRASQSIHNYLDWYQQKPGKAPKLLIYNASTRATGVPSRFSGSGSGTDFTLTISSLQPEDFATYYCQQELHLPLTFGQGTKVEIKR
binds: all assays above
